Values from PubChem BioAssay AID1224828 (NIAID, 2016)

Assay: 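Regulators linking TLR4 signalling to p65 nuclear translocation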 (primary screen)
System: mouse RAW264.7 G9 macrophage reporter cells (GFP-p65, Tnf promoter-mCherry)
Reagent: siRNA pool against mouse genes, 100 nM
Timing: 2 days siRNA transfection, then 40 min LPS before fixation
Treatment: LPS (Salmonella minnesota R595) at 10 ng/ml
Detection: 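Microscopy ratio of nuclear to perinuclear-ring GFP-p65 signal, scaled to the plate median; gene score is the average of two replicate robust z-scores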
Scale: p65 translocation robust z-score: higher = more nuclear NF-kappaB p65 after LPS than the plate median; nuclear/cytoplasmic p65 ratio: higher = more nuclear NF-kappaB p65
Hit rule: 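Active if robust z is above 3.3 (negative regulators) or below -1.56, the Tlr4 control median (positive regulators); activity score 50 or more; control wells not called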
Calls: active = hit (p65 shift raised or lowered); inactive = no clear change
In all, the deposit lists about 17,000 reagents; below is an unselected part. 762 of all reagents (4.5%) count as active. 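Active calls include both raised and lowered p65 entry, mostly lowered; wells with fewer than 50 cells lack a z-score.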 Raw values vary from plate to plate and are shown uncorrected.

Atr
- p65 translocation robust z-score: -0.14
- nuclear/cytoplasmic p65 ratio, rep 1: 1.37
- nuclear/cytoplasmic p65 ratio, rep 2: 1.36
- low cell count flag: enough cells to score
- Call: inactive

Kcnh2
- p65 translocation robust z-score: 1.9
- nuclear/cytoplasmic p65 ratio, rep 1: 1.71
- nuclear/cytoplasmic p65 ratio, rep 2: 1.65
- low cell count flag: enough cells to score
- Call: inactive

Mylk
- p65 translocation robust z-score: -1.39
- nuclear/cytoplasmic p65 ratio, rep 1: 1.26
- nuclear/cytoplasmic p65 ratio, rep 2: 1.36
- low cell count flag: enough cells to score
- Call: inactive

Or5aq7
- p65 translocation robust z-score: -1.08
- nuclear/cytoplasmic p65 ratio, rep 1: 1.45
- nuclear/cytoplasmic p65 ratio, rep 2: 1.28
- low cell count flag: enough cells to score
- Call: inactive

Apol11b
- p65 translocation robust z-score: 1.42
- nuclear/cytoplasmic p65 ratio, rep 1: 1.98
- nuclear/cytoplasmic p65 ratio, rep 2: 1.67
- low cell count flag: enough cells to score
- Call: inactive

Moxd2
- p65 translocation robust z-score: 0.16
- nuclear/cytoplasmic p65 ratio, rep 1: 1.45
- nuclear/cytoplasmic p65 ratio, rep 2: 1.72
- low cell count flag: enough cells to score
- Call: inactive

Serinc2
- nuclear/cytoplasmic p65 ratio, rep 1: 1.37
- nuclear/cytoplasmic p65 ratio, rep 2: 1.23
- low cell count flag: fewer than 50 cells per well; well left out of scoring
- Call: inactive

Chpf2
- nuclear/cytoplasmic p65 ratio, rep 1: 1.31
- nuclear/cytoplasmic p65 ratio, rep 2: 0.972
- low cell count flag: fewer than 50 cells per well; well left out of scoring
- Call: inactive

Laid out differently: results already given.
target gene,p65 translocation robust z-score,"nuclear/cytoplasmic p65 ratio, rep 1","nuclear/cytoplasmic p65 ratio, rep 2",low cell count flag,Call
Serinc2,,1.37,1.23,fewer than 50 cells per well; well left out of scoring,inactive
Chpf2,,1.31,0.972,fewer than 50 cells per well; well left out of scoring,inactive

Additional reagents follow:
Cdcp3
- p65 translocation robust z-score: 0.49
- nuclear/cytoplasmic p65 ratio, rep 1: 1.37
- nuclear/cytoplasmic p65 ratio, rep 2: 1.58
- low cell count flag: enough cells to score
- Call: inactive

Kansl2
- nuclear/cytoplasmic p65 ratio, rep 1: 1.26
- nuclear/cytoplasmic p65 ratio, rep 2: 1.6
- low cell count flag: fewer than 50 cells per well; well left out of scoring
- Call: inactive

Col2a1
- p65 translocation robust z-score: 0.58
- nuclear/cytoplasmic p65 ratio, rep 1: 1.55
- nuclear/cytoplasmic p65 ratio, rep 2: 1.45
- low cell count flag: enough cells to score
- Call: inactive

1700010H22Rik
- nuclear/cytoplasmic p65 ratio, rep 1: 1.54
- nuclear/cytoplasmic p65 ratio, rep 2: 1.44
- low cell count flag: fewer than 50 cells per well; well left out of scoring
- Call: inactive
